Data as given in PubChem BioAssay AID686943 (Drosophila RNAi Screening Center, 2013).
Test: 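Search across the genome for regulators of signalling from receptor tyrosine kinase to ERK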 (primary screen). Cells: Drosophila S2R+ haemocyte-like cells expressing YFP-tagged ERK (Rolled). Reagent: long dsRNA against Drosophila genes. Treatment: insulin stimulation versus unstimulated cells; dose and duration not given. Measured: 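Antibody staining for doubly phosphorylated ERK divided by ERK-YFP signal, as plate z-scores, in insulin-treated and untreated cells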. Direction: replicate 1, z-score of dpERK with insulin and replicate 2, z-score of dpERK with insulin: higher = more active ERK per ERK-YFP after insulin; replicate 1, z-score of dpERK under basal conditions: higher = more basal active ERK per ERK-YFP; replicate 1, z-score of ERK-YFP with insulin: higher = more YFP-tagged ERK signal.
The deposit covers about 23,000 reagents; this is an unselected part of those with a known target gene and a result. 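Extra replicates exist only for a retested subset of genes; insulin dose and duration not given; both raised and lowered dpERK matter.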 A plus sign joins genes that one reagent is predicted to hit. Not given: the amount of reagent, the time to read-out.

| gene | DRSC id | replicate 1, z-score of dpERK with insulin | replicate 2, z-score of dpERK with insulin | replicate 1, z-score of dpERK under basal conditions | replicate 1, z-score of ERK-YFP with insulin |
| --- | --- | --- | --- | --- | --- |
| meso18E | DRSC20351 | -1.19 | -1.86 | 0.14 | 0.17 |
| Srp68 | DRSC10475 | -0.53 | 0.12 | -0.16 | -0.08 |
| CG33635 | DRSC00006 | -0.17 | 0.76 | -0.25 | 0.57 |
| Noc1 | DRSC10921 | 0.09 | 0.26 | -0.12 | -0.56 |
| CG10674 | DRSC09775 | 0.59 | 0.21 | – | 0.17 |
| CG34382 | DRSC08999 | 0.62 | 0.01 | 0.62 | -0.78 |
| CG34382 | DRSC10166 | 0.63 | 0.04 | -0.66 | 0.28 |
| CG34382 | DRSC10167 | -0.46 | -1.36 | -1.45 | 0.28 |
| CG6527 | DRSC10659 | 0.27 | 0.37 | -0.63 | -0.14 |
| Osi17 | DRSC12284 | -0.33 | 1 | 1.05 | -0.12 |
| CG14356 | DRSC14819 | 0.96 | -1.49 | 0.02 | 0.08 |
| Tmx3 | DRSC10471 | 1.33 | 1.2 | 0.59 | 0.91 |
| CG13250 | DRSC11698 | 0.44 | 0.36 | -0.58 | -0.68 |
| yellow-f | DRSC15348 | 0.27 | -1.61 | -0.01 | -0.66 |
| Acp32CD | DRSC01858 | 0.08 | -1.31 | 1.11 | 0.79 |
| EMRE | DRSC06686 | 0.41 | 0.58 | 1.09 | 1.35 |
| Nup93-2 | DRSC16221 | 0.02 | -0.61 | 0.93 | 0.98 |
| per | DRSC18818 | -0.37 | 0.06 | -0.18 | -0.06 |
| CG3528 | DRSC00611 | -1.19 | 0.01 | -0.74 | 2.54 |
| Obp83b | DRSC12360 | 0.6 | 0.49 | 0.17 | 0.14 |
| Bcat | DRSC19756 | -0.08 | 0.12 | – | 0.52 |
| CG15219 | DRSC03715 | 0 | 0.19 | -1.4 | 0.66 |
| eIF4E6 | DRSC14853 | -1.05 | -0.03 | -0.3 | 0.28 |
| HGTX | DRSC09319 | 0.96 | 0.83 | 0.58 | -0.32 |
| HGTX | DRSC11181 | -0.85 | 0.77 | 0.32 | -0.02 |
| CG42326 | DRSC06483 | 1.02 | 0.36 | 0.29 | 0.35 |
| CG42326 | DRSC06484 | -1.43 | -0.29 | -0.57 | 1.29 |
| B-H2 | DRSC19335 | -5.08 | -1.39 | -2.75 | -0.16 |
| tefu | DRSC16060 | -0.72 | -0.78 | 1 | -1.89 |
| MED31 | DRSC12142 | 1.51 | 1.13 | -1.96 | -0.97 |
| CCHa2-R | DRSC04825 | 1.14 | 0.61 | -1.54 | -5.32 |
| CCHa2-R | DRSC04870 | 0.82 | 0.65 | 0.06 | -0.26 |
| CCHa2-R | DRSC04871 | 0.25 | 1.25 | -0.33 | 0.97 |
| CG13581 | DRSC04216 | 0.19 | 0.43 | -0.46 | -0.04 |
| AP-1gamma | DRSC18433 | 0.33 | 0.6 | 0.76 | 0.31 |
| Smn | DRSC10223 | -0.24 | -0.49 | 2.13 | -0.73 |
| CG17349 | DRSC02610 | -0.48 | -1.27 | -0.34 | -0.15 |
| CG15199 | DRSC19646 | 0.04 | -0.09 | -0.48 | 0.6 |
| CG40583 (retired record) | DRSC20938 | 0.11 | 0.84 | 0.35 | 0.88 |
| Vps50 | DRSC06910 | -0.2 | 0.18 | 0.21 | 0.18 |
| CG3149 | DRSC17732 | 0.51 | 0.64 | -0.07 | -0.16 |
| Tace | DRSC16340 | 0.51 | 0.56 | -0.04 | 0.28 |
| knon | DRSC07049 | 0.19 | 0.18 | 0.88 | 0.26 |
| insc | DRSC04695 | 0.88 | 2 | 0.85 | -0.78 |
| lush | DRSC11364 | -1.18 | 0.51 | -0.49 | 0.78 |
| Gyc32E | DRSC01154 | 0.5 | 0.51 | -0.47 | -0.07 |

7 entries from above, sorted by “replicate 1, z-score of dpERK under basal conditions”, descending:
| gene | DRSC id | replicate 1, z-score of dpERK with insulin | replicate 2, z-score of dpERK with insulin | replicate 1, z-score of dpERK under basal conditions | replicate 1, z-score of ERK-YFP with insulin |
| --- | --- | --- | --- | --- | --- |
| Smn | DRSC10223 | -0.24 | -0.49 | 2.13 | -0.73 |
| AP-1gamma | DRSC18433 | 0.33 | 0.6 | 0.76 | 0.31 |
| CCHa2-R | DRSC04870 | 0.82 | 0.65 | 0.06 | -0.26 |
| CCHa2-R | DRSC04871 | 0.25 | 1.25 | -0.33 | 0.97 |
| CG17349 | DRSC02610 | -0.48 | -1.27 | -0.34 | -0.15 |
| CG13581 | DRSC04216 | 0.19 | 0.43 | -0.46 | -0.04 |
| CCHa2-R | DRSC04825 | 1.14 | 0.61 | -1.54 | -5.32 |

Next records follow.
| gene | DRSC id | replicate 1, z-score of dpERK with insulin | replicate 2, z-score of dpERK with insulin | replicate 1, z-score of dpERK under basal conditions | replicate 1, z-score of ERK-YFP with insulin |
| --- | --- | --- | --- | --- | --- |
| Snmp2 | DRSC10228 | -0.29 | 0.53 | -0.55 | -0.09 |
| Snmp2 | DRSC10843 | -0.4 | 0.66 | 0.51 | 0.42 |
| CG33178 | DRSC19950 | -0.44 | -1.02 | -0.02 | 0.29 |
| lncRNA:CR32690 | DRSC22219 | -0.27 | 0.44 | 0.87 | 2.21 |
| wgn | DRSC19998 | -0.53 | 0.3 | 1.23 | 0.15 |
| CG31668 | DRSC22584 | -0.19 | -0.55 | -1.14 | 1.35 |
| Septin4 | DRSC20205 | 0.48 | 0.37 | -0.46 | -0.93 |
| Kif19A | DRSC16576 | 0.96 | 0.09 | -0.89 | -0.38 |
| kappaB-Ras + CG30503 | DRSC06619 | 0.98 | 0.69 | 0.21 | -0.42 |
| kappaB-Ras + CG30503 | DRSC07636 | 1.16 | 0.78 | 0.28 | -1.03 |
| CG12713 | DRSC09900 | 0.17 | -0.07 | -0.27 | 0.18 |
| Tailor | DRSC12526 | 0.81 | -0.01 | -0.84 | 0.07 |
| CG13305 | DRSC09975 | -0.38 | -0.56 | -0.58 | -1.08 |
| Pld | DRSC04854 | 0.99 | 0.11 | -0.49 | -0.61 |
| CG7974 | DRSC08607 | 0.23 | -0.15 | 0.23 | 0.04 |
| CG2839 | DRSC00544 | 0.71 | 0.02 | 0.35 | -0.74 |
| Pc | DRSC11873 | -3.07 | -3.58 | 0.37 | 1.55 |
| KLHL18 | DRSC15496 | -0.27 | -0.64 | -0.89 | 2.47 |
| CG42673 | DRSC08989 | 0.49 | 0.5 | 0.73 | 0.21 |
| CG42673 | DRSC08991 | -3 | -3.26 | -3.67 | -1.09 |
| CG42673 | DRSC10177 | 1.93 | 1.72 | 0.76 | 0.25 |
| CG42673 | DRSC10264 | -0.51 | -0.53 | 0.63 | 0.38 |
| CG42673 | DRSC10353 | 0.4 | 0.05 | -0.09 | 0.18 |
| CG42673 | DRSC10354 | -0.23 | -0.62 | -0.46 | 0.19 |
| Br140 | DRSC06755 | -1.35 | -0.98 | -0.55 | 0.13 |
| veli | DRSC16276 | 0.93 | -0.26 | 0.5 | -0.23 |
| CG5078 | DRSC11762 | -0.3 | -0.13 | 0.73 | 0.05 |
